Results are given in words; binding and its absence hold for the method and conditions named. Binding can be weak; no strength is given. For some of these results: Binding seen in cells or lysates may run through a third protein.

Protein sequences, listed by entry. Tags and fused reporters are not part of them. Lines headed by an entry give the natural chain unless they say otherwise; changes in a name come on top. Residues count along the entry.
UniProt K9N4Q4: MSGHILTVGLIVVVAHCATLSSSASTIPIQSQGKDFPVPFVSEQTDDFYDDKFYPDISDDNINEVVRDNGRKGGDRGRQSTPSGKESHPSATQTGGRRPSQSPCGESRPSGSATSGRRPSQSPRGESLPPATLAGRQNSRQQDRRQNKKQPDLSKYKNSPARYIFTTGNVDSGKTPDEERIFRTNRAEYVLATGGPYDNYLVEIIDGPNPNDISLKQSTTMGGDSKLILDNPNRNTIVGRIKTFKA
UniProt Q02413: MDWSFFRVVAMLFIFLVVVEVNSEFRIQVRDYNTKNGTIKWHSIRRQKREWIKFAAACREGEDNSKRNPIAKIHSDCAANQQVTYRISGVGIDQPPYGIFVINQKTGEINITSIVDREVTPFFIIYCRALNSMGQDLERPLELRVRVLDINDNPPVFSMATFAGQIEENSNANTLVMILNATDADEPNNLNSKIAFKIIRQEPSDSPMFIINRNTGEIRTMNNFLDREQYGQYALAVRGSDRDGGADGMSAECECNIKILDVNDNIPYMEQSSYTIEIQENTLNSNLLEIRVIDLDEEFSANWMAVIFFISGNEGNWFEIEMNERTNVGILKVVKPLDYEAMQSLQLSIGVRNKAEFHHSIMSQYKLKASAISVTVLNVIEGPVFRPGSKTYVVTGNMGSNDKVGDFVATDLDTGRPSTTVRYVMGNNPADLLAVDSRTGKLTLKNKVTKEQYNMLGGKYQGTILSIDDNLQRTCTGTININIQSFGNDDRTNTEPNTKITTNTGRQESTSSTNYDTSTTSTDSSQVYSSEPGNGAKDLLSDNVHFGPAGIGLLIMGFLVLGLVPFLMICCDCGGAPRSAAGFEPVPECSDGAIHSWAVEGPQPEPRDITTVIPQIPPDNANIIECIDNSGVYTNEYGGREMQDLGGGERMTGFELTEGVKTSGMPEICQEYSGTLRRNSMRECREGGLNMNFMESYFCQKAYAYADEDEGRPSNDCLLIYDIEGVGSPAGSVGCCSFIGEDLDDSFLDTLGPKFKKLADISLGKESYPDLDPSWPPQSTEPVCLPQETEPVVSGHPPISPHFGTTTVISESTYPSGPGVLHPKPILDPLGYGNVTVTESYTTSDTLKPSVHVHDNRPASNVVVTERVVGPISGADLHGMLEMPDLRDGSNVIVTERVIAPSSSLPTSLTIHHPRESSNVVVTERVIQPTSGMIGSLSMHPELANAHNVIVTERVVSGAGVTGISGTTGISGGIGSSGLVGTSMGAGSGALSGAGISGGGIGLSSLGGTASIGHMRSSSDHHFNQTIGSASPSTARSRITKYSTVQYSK
recombinant human Dsg1: residues 50-548 of Q02413

Data on 3 molecules can be found in article PMC7714401.

For experiment [1], the target named is recombinant PpSP32 protein of Phlebotomus papatasi (Phlebotomus papatasi) (UniProt K9N4Q4). The experiment can be described thus: co-IP; mixture of skin extract (100 μg) and rPpSP32 (25 μg) incubated at 4°C for 1 hour with Dynabeads M-270 Epoxy adsorbed with anti-His antibody; eluate analysed by Coomassie staining and by blots with anti-human Dsg1, anti-human Dsg3 and anti-His antibodies; only the target purified.

Experiment [2] has as its target recombinant human Dsg1 (human) (UniProt Q02413). The experiment can be described thus: ELISA; plates coated with 0.1 μg recombinant protein in carbonate-bicarbonate buffer (0.1 M, pH 9.6) at 4°C overnight; incubated with decreasing concentrations of rPpSP32 (or CFP32) for 1 hour at 37°C; detected with human sera containing anti-PpSP32 or anti-CFP32 antibodies; both purified.

Experiment [3] deals with T1, recombinant human Dsg3 (human) (UniProt P32926).
T1 sequence: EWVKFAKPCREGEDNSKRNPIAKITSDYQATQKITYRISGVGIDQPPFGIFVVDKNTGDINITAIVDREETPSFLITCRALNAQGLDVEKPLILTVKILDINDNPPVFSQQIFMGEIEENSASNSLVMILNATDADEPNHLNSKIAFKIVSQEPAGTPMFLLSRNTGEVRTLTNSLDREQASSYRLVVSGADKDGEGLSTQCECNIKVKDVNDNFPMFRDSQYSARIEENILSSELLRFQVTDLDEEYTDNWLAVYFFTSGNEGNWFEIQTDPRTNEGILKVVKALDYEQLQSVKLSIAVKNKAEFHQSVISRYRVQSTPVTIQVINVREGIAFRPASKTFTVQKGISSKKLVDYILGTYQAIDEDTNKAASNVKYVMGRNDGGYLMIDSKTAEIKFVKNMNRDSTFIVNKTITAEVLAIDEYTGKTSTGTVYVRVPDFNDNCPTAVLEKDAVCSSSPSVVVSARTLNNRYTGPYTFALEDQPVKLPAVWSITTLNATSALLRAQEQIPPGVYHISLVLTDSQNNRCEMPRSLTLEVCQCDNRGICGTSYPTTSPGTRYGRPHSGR
Described as above.

On to “desmoglein 1 of the human epidermal extract (from UniProt Q02413 50-1049)”, for which the binding result in experiment [1] is given as “binds”.

As for “recombinant PpSP32 protein of Phlebotomus papatasi (from UniProt K9N4Q4)”, the binding entry in experiment [2] and in experiment [3] was “binds” throughout.

B1: desmoglein 3 of the human epidermal extract (protein, UniProt P32926 50-999)
chain: EWVKFAKPCREGEDNSKRNPIAKITSDYQATQKITYRISGVGIDQPPFGIFVVDKNTGDINITAIVDREETPSFLITCRALNAQGLDVEKPLILTVKILDINDNPPVFSQQIFMGEIEENSASNSLVMILNATDADEPNHLNSKIAFKIVSQEPAGTPMFLLSRNTGEVRTLTNSLDREQASSYRLVVSGADKDGEGLSTQCECNIKVKDVNDNFPMFRDSQYSARIEENILSSELLRFQVTDLDEEYTDNWLAVYFFTSGNEGNWFEIQTDPRTNEGILKVVKALDYEQLQSVKLSIAVKNKAEFHQSVISRYRVQSTPVTIQVINVREGIAFRPASKTFTVQKGISSKKLVDYILGTYQAIDEDTNKAASNVKYVMGRNDGGYLMIDSKTAEIKFVKNMNRDSTFIVNKTITAEVLAIDEYTGKTSTGTVYVRVPDFNDNCPTAVLEKDAVCSSSPSVVVSARTLNNRYTGPYTFALEDQPVKLPAVWSITTLNATSALLRAQEQIPPGVYHISLVLTDSQNNRCEMPRSLTLEVCQCDNRGICGTSYPTTSPGTRYGRPHSGRLGPAAIGLLLLGLLLLLLAPLLLLTCDCGAGSTGGVTGGFIPVPDGSEGTIHQWGIEGAHPEDKEITNICVPPVTANGADFMESSEVCTNTYARGTAVEGTSGMEMTTKLGAATESGGAAGFATGTVSGAASGFGAATGVGICSSGQSGTMRTRHSTGGTNKDYADGAISMNFLDSYFSQKAFACAEEDDGQEANDCLLIYDNEGADATGSPVGSVGCCSFIADDLDDSFLDSLGPKFKKLAEISLGVDGEGKEVQPPSKDSGYGIESCGHPIEVQQTGFVKCQTLSGSQGASALSTSGSVQPAVSIPDPLQHGNYLVTETYSASGSLVQPSTAGFDPLLTQNVIVTERVICPISSVPGNLAGPTQLRGSHTMLCTEDPCSRLI
Take B1: the binding entry in experiment [1] was “binds”.
